Screen size: about 330,000 compounds; about 7,700 (2.3%) were called active. Inconclusive means that the source gave no clear call. Such entries were picked first, then a sample of the others. Calls follow the shape of the dose curve; as a rule, active = well fitted inhibition curve with a large enough effect; inconclusive = small, poorly fitted or top-dose-only effect, or effect the other way; inactive = flat fitted curve, though single readings scatter. Where the call is inconclusive, the potency comes from a doubtful curve fit.
test: qHTS screen for small molecules that inhibit ELG1-dependent DNA repair in human embryonic kidney (HEK293T) cells expressing luciferase-tagged ELG1; settings: HEK293T ELG1-luciferase reporter, luminescence, 16 h, DNA damage induced by 5-fluorouridine; series mostly up to 46.1 µM; also: nearly all actives have a fitted effect of over 55% in size
How it was run: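 Overnight (16 hr) co-exposure of 2,000 cells/well to 5-fluorouridine and compound at 37 °C preceded detection. Luciferase was quantified via ONE-Glo luminescence; loss of signal denotes inhibition.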
Potency is read from the fitted curve at half-maximal effect.

SMILES | Potency
COc1ccc(C(=O)NC2CCCCCC2)cc1S(=O)(=O)N1CCCc2ccccc21 | inconclusive: 32.6 µM [inhibitor, single point]
CC(=C/c1ccccc1)/C=N/NC(=O)c1ccc2nc[nH]c2c1 | inconclusive: 11.6 µM [activator, partial curve]
O=C(CN1CCOCC1)Nc1scc(-c2ccccc2)c1C(=O)N1CCOCC1 | inactive
CCC(NC(=O)c1cc(COc2ccc(OC)cc2Cl)on1)c1ccncc1 (stereo unspecified) | inconclusive: 5.17 µM [activator, partial curve]
O=C(NNC(=O)c1cccs1)c1ccncc1 | inactive
O=C(NNC(=O)c1cc2ccccc2cc1O)c1cccs1 | inconclusive: 16.4 µM [activator, partial curve]
O=c1c2ccccc2c(-c2ccccc2)nn1-c1cc(Cl)ccc1[N+](=O)[O-] | inconclusive: 29.1 µM [inhibitor, single point]
COc1ccc(CCNC(=O)CCC(=O)Nc2nnc(C(C)C)s2)cc1OC | inactive
COc1cc(/C=N/Nc2nncn2N)ccc1OCc1c(C)no[n+]1[O-] | inactive
COC(C(=O)N1CCC(n2nccc2NC(=O)C2CC2)CC1)c1ccccc1 (stereo unspecified) | inconclusive: 16.4 µM [activator, partial curve]
Cc1ccc(NC(=O)c2ccc3c(c2)nnn3C)cc1 | inconclusive: 13 µM [activator, partial curve, poor fit]
CCc1noc(C)c1C(=O)NCCc1ccc(Cl)cc1 | inactive
COc1ccccc1NS(=O)(=O)c1cc(NC(=O)c2ccco2)ccc1N1CCOCC1 | inactive
CCc1ccc(OCC(=O)N2CCN(c3ccccn3)CC2)c(Br)c1 | inactive
CN1CCN(Cc2nc3ccccc3c(=O)n2Cc2nc(-c3ccc4ccccc4c3)cs2)CC1 | active: 13 µM
CNC(=S)N(CCc1c(C)[nH]c2ccccc12)Cc1cc(OC)c(OC)c(OC)c1 | inconclusive: 13 µM [inhibitor, partial curve]
COc1ccc2cc(Br)ccc2c1CC(=O)N1CCCC1 | inactive
O=C(Oc1ccc(-c2cnc3ccccc3n2)cc1)c1ccc(Cl)c([N+](=O)[O-])c1 | inconclusive: 3.66 µM [activator, full curve]
COC(=O)c1cc2c(N)c(C(=O)c3ccc(Cl)cc3)sc2nc1C(OC)OC | inconclusive: 16.4 µM [inhibitor, single point]
CCCCCOC(=O)CSc1nnc(-c2ccccc2)c(=O)[nH]1 | inconclusive: 29.1 µM [activator, single point]
Cc1nnc(NC(=O)C2CC(=O)N(C(C)c3ccccc3)C2)s1 (stereo unspecified) | inactive
COc1cc(C(=O)NCc2ncccc2C)ccc1OC1CCN(C(C)=O)CC1 | inactive
O=C(NNc1c([N+](=O)[O-])cc(C(F)(F)F)cc1[N+](=O)[O-])c1ccco1 | active: 18.3 µM
Cc1cc([N+](=O)[O-])ccc1NC(=O)Nc1ccccc1F | inconclusive: 9.2 µM [inhibitor, partial curve, poor fit]

SMILES | Potency
CCOC(=O)CCCC(=O)N1CCOCCOCCN(C(=O)CCCC(=O)OCC)CCOCCOCC1 | inconclusive: 18.3 µM [activator, partial curve]
COC(=O)c1sccc1NC(=S)Nc1cc(C)ccc1OC | inactive
CCOC(=O)C1CCCN(C(=O)c2ccc3nc(-c4cccc(OC)c4)oc3c2)C1 (stereo unspecified) | inconclusive: 2.31 µM [activator, partial curve]
O=C(c1noc2c1CCCC2)N1CCC(CO)(Cc2ccccc2Cl)CC1 | active: 20.6 µM
CN(CC(=O)Nc1ccc(Cl)c(S(=O)(=O)N2CCOCC2)c1)C(=O)c1cccs1 | inactive
CCCCn1c(N)c(N(CC)C(=O)C2=COCCO2)c(=O)[nH]c1=O | inactive
CNc1[nH]ncc1[N+](=O)[O-] | inconclusive: 18.3 µM [activator, partial curve]
CCOc1ccc(S(=O)(=O)N2CCN(C(=O)c3cc4ccccc4o3)CC2)cc1 | inconclusive: 20.6 µM [inhibitor, single point]
O=C(CSc1nc2ccccc2[nH]1)N/N=C/c1ccco1 | inconclusive: 20.6 µM [activator, partial curve, poor fit]
CCCC(C)C(=O)Nc1ncc(S(=O)(=O)c2ccc([N+](=O)[O-])cc2)s1 (stereo unspecified) | inconclusive: 20.6 µM [inhibitor, single point]
CCCc1cc(C(=O)NCc2cccs2)no1 | inconclusive: 13 µM [activator, partial curve]
O=C(CCNS(=O)(=O)c1ccccc1F)N1CCN(C(c2ccccc2)c2ccccc2)CC1 | inconclusive: 25.9 µM [inhibitor, single point]
O=C1CC(N2CCN(C/C=C/c3ccccc3)CC2)C(=O)N1Cc1ccc(N2CCCC2=O)cc1 (stereo unspecified) | inconclusive: 12.6 µM [inhibitor, partial curve, poor fit]
COc1cc(NC(=O)C23CC4CC(C2)CC(n2cnc([N+](=O)[O-])n2)(C4)C3)cc(OC)c1 | inactive
COC(=O)c1ccccc1NC(=O)CSc1nc(C)cc(C)n1 | inactive
COc1ccc(C2C(CC(=O)O)=C(Nc3ccccc3)C(=O)N2c2ccccc2)cc1 (stereo unspecified) | inconclusive: 10.3 µM [activator, partial curve]
O=C(NCc1cccc(F)c1)C1CCC(=O)N(C2CC2)C1 (stereo unspecified) | inactive
OC(c1ccccc1)c1ccncc1 (stereo unspecified) | inconclusive: 25.1 µM [activator, single point]
COc1ccc(NC(=O)CN(C)CC(=O)Nc2cccc(C(C)=O)c2)cc1 | inconclusive: 0.73 µM [inhibitor, partial curve, poor fit]
Cc1ccc(N=Cc2c(O)n(-c3nccs3)c(=O)c3ccccc23)c(C)c1 | inconclusive: 16.4 µM [inhibitor, single point]
O=C(CSc1nncs1)NCCCc1ccccc1 | inconclusive: 0.651 µM [inhibitor, single point]
CCc1nnc(NC(=O)CSc2nc3cc4c(cc3cc2CC)OCCO4)s1 | inactive
C[C@H](CO)N1C[C@H](C)[C@@H](CN(C)Cc2ccc(C(=O)O)cc2)Oc2c(NC(=O)c3ccncc3)cccc2C1=O | inconclusive: 25.9 µM [activator, partial curve, poor fit]
CCN(C(=O)COc1ncnc2sccc12)c1ccccc1 | inactive

Retrieved one by one from above:
SMILES | Potency
COC(=O)c1ccccc1NC(=O)CSc1nc(C)cc(C)n1 | inactive
O=C(CSc1nncs1)NCCCc1ccccc1 | inconclusive: 0.651 µM [inhibitor, single point]
CN(CC(=O)Nc1ccc(Cl)c(S(=O)(=O)N2CCOCC2)c1)C(=O)c1cccs1 | inactive

Next part:

SMILES | Potency
Cc1ccc2[nH]c(C(=O)N3CCCCC3)cc2c1 | inconclusive: 17.8 µM [activator, partial curve, poor fit]
Cc1ccc(CNC(=O)CNC(=O)c2ccc(C(C)(C)C)cc2)n1C | inactive
CCC1CCc2sc(C(=O)NC3CCN(Cc4ccccc4)CC3)cc2C1 (stereo unspecified) | inactive
Cc1ccc(-c2csc(NNC(=O)c3ccccc3)n2)cc1 | inconclusive: 16.4 µM [activator, single point]
CC(C)c1nnc(NC(=O)COc2ccccc2[N+](=O)[O-])s1 | inconclusive: 13 µM [activator, partial curve]
O=C(Nc1cccc(NC(=O)c2cccc(F)c2)n1)c1cccc(F)c1 | inconclusive: 29.1 µM [inhibitor, single point]
CNC(=S)N(Cc1ccco1)Cc1cc2cc(OC)c(OC)cc2[nH]c1=O | inactive
CCOc1ncccc1C(=O)OCC(=O)Nc1ccc(-c2nc3ccc(C)cc3s2)cc1 | inconclusive: 1.3 µM [activator, full curve]
Nc1nccnc1C(=O)N/N=C/c1ccco1 | inconclusive: 20.6 µM [activator, partial curve]
Cc1ccc(C)c(S(=O)(=O)N2CCCOC2CNC(=O)C(=O)NCc2ccc3c(c2)OCO3)c1 (stereo unspecified) | inconclusive: 20.6 µM [inhibitor, partial curve]
Cc1ccc(OCc2ccc(C(=O)O)o2)cc1C | inconclusive: 2.31 µM [activator, partial curve]
COC(=O)c1ccc(NC(=O)C(=O)N2CCCC2)cc1 | inconclusive: 6.51 µM [activator, partial curve]
C[C@H](CO)N1C[C@H](C)[C@@H](CN(C)C(=O)Nc2ccc(C(F)(F)F)cc2)Oc2c(NC(=O)Cc3ccccc3)cccc2C1=O | inconclusive: 1.83 µM [inhibitor, partial curve]
O=C(CCOc1ccccc1)Nc1ccc(S(=O)(=O)N2CCCC2)cc1 | inconclusive: 13 µM [inhibitor, partial curve]
CC1=CC(=C(C#N)C#N)C=C(C)N1Cc1ccc(Cl)cc1 | inconclusive: 16.4 µM [activator, single point]
COc1ccccc1NC(=O)CSC(N)=O | inactive
CSc1cnn(-c2ccccc2)c(=O)c1SC | inactive
COc1ccc(C(C(=O)NC2CCCCC2)N(C(=O)Cc2c[nH]c3ccccc23)c2ccccc2)cc1OC (stereo unspecified) | inconclusive: 29.1 µM [inhibitor, single point]
Cc1cc(O)c(-c2n[nH]c3c2C(c2cccc(O)c2)N(Cc2cccnc2)C3=O)cc1Cl (stereo unspecified) | inconclusive: 14.6 µM [inhibitor, partial curve]
CCN(Cc1ccccc1)S(=O)(=O)c1ccc(F)cc1 | inactive
Cc1cc(C)c2c(=O)n(CC(=O)Nc3cccc(F)c3)sc2n1 | inconclusive: 29.1 µM [activator, partial curve, poor fit]
CCOc1ccc(NC(=O)Cc2cccc3ccccc23)c([N+](=O)[O-])c1 | inactive
O=C(O)c1ccc2nc(C(F)(F)F)[nH]c2c1 | inconclusive: 16.4 µM [activator, single point]
